{
  "source": "patent US6894149",
  "about": "(PROTEIN DESIGN LABS, dated 2005)",
  "key": {"[1]": {"biological_target": "HLA-DR from KG-1 cells (cell lysate) (human)", "experiment": "antibody affinity column on KG-1 lysate, MALDI-TOF identification"}, "[2]": {"biological_target": "HLA-DR on cells that express HLA-DR (human)", "experiment": "flow cytometry on cell lines and normal donors' blood cells"}},
  "note": "No constants are given. Whether binding was seen depends on the method and setting. Some binding calls cover weakened binding; strength is not graded here.",
  "data": [
    {"binder": "K8-355 (antibody, mouse IgG1, V domains shown) VH: QIQLVQSGPELKKPGETVKISCKASKYTFTNYGMNWVKQAPGKVLRWMGWINTYTGEPTYADDFKGRFAFSLETSASTAYLQINNLKNEDMATYFCATTTLITYYFDYWGQGTTLTVSS VL: DIQMTQTTSSLSASLGDRVTISCRSSQDISKYLNWYQQKPDGTVKLLIYYTSRLHSGVPSRFSGSGSGTDYSLTISNLEQEDIATYFCQQGDTVPWTFGGGTKLEIK", "values": [
      {"measurement": "binding", "setting": "[1]", "value": "binds"},
      {"measurement": "binding", "setting": "[2]", "value": "binds"}
    ]}
  ]
}
